Measured values taken from article PMC3138748, “A Small Peptide Modeled after the NRAGE Repeat Domain Inhibits XIAP-TAB1-TAK1 Signaling for NF-κB Activation and Apoptosis in P19 Cells” (PLoS ONE, 2011).
No constants are given. Whether binding was seen depends on the method and setting. In cells and extracts the contact can be indirect. Some results given as binding are weak or reduced against the parent protein; the word gives no strength. For part of these data: Tags and fused reporters may be left off the sequences shown.

Sequences of proteins named here, by UniProt entry; tags and fusion partners are left off.
UniProt Q60989: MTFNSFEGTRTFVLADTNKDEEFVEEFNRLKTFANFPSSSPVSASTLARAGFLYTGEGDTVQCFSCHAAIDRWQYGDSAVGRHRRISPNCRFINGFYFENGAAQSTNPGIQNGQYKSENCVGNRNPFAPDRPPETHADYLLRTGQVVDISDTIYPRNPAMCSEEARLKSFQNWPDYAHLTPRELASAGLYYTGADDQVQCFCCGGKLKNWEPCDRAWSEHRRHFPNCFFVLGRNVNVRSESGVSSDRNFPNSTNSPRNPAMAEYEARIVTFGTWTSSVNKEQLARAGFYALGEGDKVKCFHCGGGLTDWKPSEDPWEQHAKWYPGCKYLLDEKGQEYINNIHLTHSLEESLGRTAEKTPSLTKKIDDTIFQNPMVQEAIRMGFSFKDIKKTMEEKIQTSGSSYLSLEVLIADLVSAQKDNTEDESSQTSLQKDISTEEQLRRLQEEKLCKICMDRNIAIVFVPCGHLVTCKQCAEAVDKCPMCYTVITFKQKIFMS

T1: endogenous NRAGE (neurotrophin receptor-mediated MAGE homolog) of P19 cells (mouse (endogenous in P19)) (UniProt Q9QYH6)
T1 sequence: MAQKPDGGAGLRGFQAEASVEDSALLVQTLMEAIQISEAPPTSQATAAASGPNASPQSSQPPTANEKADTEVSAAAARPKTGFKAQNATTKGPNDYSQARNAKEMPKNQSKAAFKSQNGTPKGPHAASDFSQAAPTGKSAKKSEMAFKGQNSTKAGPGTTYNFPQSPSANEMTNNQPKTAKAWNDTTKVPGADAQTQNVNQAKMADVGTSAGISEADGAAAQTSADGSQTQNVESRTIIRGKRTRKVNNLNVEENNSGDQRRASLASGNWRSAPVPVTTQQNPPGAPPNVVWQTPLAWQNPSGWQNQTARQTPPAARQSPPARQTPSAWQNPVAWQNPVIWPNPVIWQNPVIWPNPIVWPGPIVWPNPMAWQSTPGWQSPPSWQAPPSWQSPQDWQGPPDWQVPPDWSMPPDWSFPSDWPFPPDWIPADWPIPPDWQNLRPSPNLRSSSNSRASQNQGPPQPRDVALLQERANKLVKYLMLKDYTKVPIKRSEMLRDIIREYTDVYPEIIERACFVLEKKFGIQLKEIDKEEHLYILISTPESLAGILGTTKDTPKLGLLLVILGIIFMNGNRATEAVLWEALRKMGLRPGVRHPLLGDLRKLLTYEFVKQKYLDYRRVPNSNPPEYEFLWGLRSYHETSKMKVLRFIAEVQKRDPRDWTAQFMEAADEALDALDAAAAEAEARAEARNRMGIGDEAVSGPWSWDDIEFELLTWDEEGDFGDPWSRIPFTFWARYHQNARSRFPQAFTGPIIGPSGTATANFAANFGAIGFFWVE


What was measured:
[1] = biological target: T1, endogenous NRAGE (neurotrophin receptor-mediated MAGE homolog) of P19 cells (mouse (endogenous in P19)); assay: co-IP; endogenous NRAGE immunoprecipitated (anti-NRAGE, Santa Cruz sc-14398) from NP-40 lysates of P19 cells, blotted for XIAP, TAK1 and NRAGE; cells untreated or treated with 10 ng/ml BMP-4 (1 h), 10 nM NRAGE peptide and 6 µM EndoPorter, alone or combined
[2] = biological target: T2, EYFP-XIAP (UniProt Q60989 1-496); assay: FRET or BRET; data not shown: donor dequenching CFP:YFP FRET of overexpressed fluorescently tagged full-length NRAGE and XIAP in cells cultured with the NRAGE peptide at 10 nM, 100 nM or 1 µM
T2 construct: also called Y-X; source: 293T, co-transfected, in fixed cells; not shown: EYFP, N-terminal, kept

Row | binding [1] | binding [2] | Molecule
1 | binds |  | endogenous XIAP (X-linked inhibitor of apoptosis protein) of P19 cells (from UniProt Q60989 1-496)
2 | binds |  | endogenous TAK1 (TGF-β activated kinase 1) of P19 cells (protein, UniProt Q62073 1-579) MSTASAASSSSSSSASEMIEAPSQVLNFEEIDYKEIEVEEVVGRGAFGVVCKAKWRAKDVAIKQIESESERKAFIVELRQLSRVNHPNIVKLYGACLNPVCLVMEYAEGGSLYNVLHGAEPLPYYTAAHAMSWCLQCSQGVAYLHSMQPKALIHRDLKPPNLLLVAGGTVLKICDFGTACDIQTHMTNNKGSAAWMAPEVFEGSNYSEKCDVFSWGIILWEVITRRKPFDEIGGPAFRIMWAVHNGTRPPLIKNLPKPIESLMTRCWSKDPSQRPSMEEIVKIMTHLMRYFPGADEPLQYPCQYSDEGQSNSATSTGSFMDIASTNTSNKSDTNMEQVPATNDTIKRLESKLLKNQAKQQSESGRLSLGASRGSSVESLPPTSEGKRMSADMSEIEARIVATAGNGQPRRRSIQDLTVTGTEPGQVSSRSSSPSVRMITTSGPTSEKPARSHPWTPDDSTDTNGSDNSIPMAYLTLDHQLQPLAPCPNSKESMAVFEQHCKMAQEYMKVQTEIALLLQRKQELVAELDQDEKDQQNTSRLVQEHKKLLDENKSLSTYYQQCKKQLEVIRSQQQKRQGTS
3 |  | binds | CFP-NRAGE (full-length NRAGE) (protein, UniProt Q9ES73 1-775) MAQKPDGGAGLRGFQAEASVEDSALLVQTLMEAIQISEAPPTSQATAAASGPNASPQSSQPPTANEKADTEVSAAAARPKTGFKAQNTTTKGPNDYSQARNAKEMPKNQPKVAFKSQNATSKGPHAASDFSHAASTGKSAAKKSEMAFKGQNTTTKAGPSATYNFTQSPSANEMTNNQPKTAKAWNDTTKIPGADAQTQNVNQAKMADVGTSAGISETDGAAAQTSADGSQAQNVESRTIIRGKRTRKINNLNVEENSNGDQRRASLASGNWRSAPVPVTTQNPPGAPPNVLWQTPLAWQNPSGWQNQTARQTPPARQSPPARQTPSAWQNPVAWQNPVIWPNPVIWQNPVIWPNPIVWPGPIVWPNPMAWQSTPGWQSPPSWQAPPSWQSPQDWQGPPDWQLPPDWSMPPDWSFPSDWPFPPDWIPADWPIPPDWQNLRPSPNLRSSPNSRASQNQGPPQPRDVALLQERANKLVKYLMLKDYTKVPIKRSEMLRDIIREYTDVYPEIIERACFVLEKKFGIQLKEIDKEEHLYILISTPESLAGILGTTKDTPKLGLLLVILGIIFMNGNRATEAVLWEALRKMGLRPGVRHPLLGDLRKLLTYEFVKQKYLDYRRVPNSNPPEYEFLWGLRSYHETSKMKVLRFIAEVQKRDPRDWTAQFMEAADEALDALDAAAAEAEARAEARNRMGIGDEAVSGPWSWDDIEFELLTWDEEGDFGDPWSRIPFTFWARYHQNARSRFPQAFTGPIIGPSGTATANFAANFGAIGFFWVE
